PubChem BioAssay AID743121, NCATS | 2013
In all, the deposit lists about 26,000 reagents; this is a part drawn at random. 167 of them (0.63%) count as active. 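Calls are per gene from RSA p-values that are not deposited; an individual active-marked siRNA can sensitise only weakly.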 A number with no mark means an inactive call. The numbers tell different reagents against one gene apart. Not all columns of the deposit are shown.

Screen: 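Partners whose loss is lethal together with topoisomerase I blockade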 (primary screen)
Cell system: MDA-MB-231 cells, a human breast cancer line
Knock-down reagent: single siRNA against human genes, 20 nM siRNA (0.8 pmol per well)
Duration: 120 h (drug added 48 h after transfection, read 72 h later)
Challenge: camptothecin 20 nM (about EC30) for 72 h; vehicle 0.1% DMSO in parallel plates
Measured: 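CellTiter-Glo ATP signal, scaled to control siRNA as percent viability; sensitisation given as log2 of untreated divided by camptothecin-treated viability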
Direction: log2 vehicle/camptothecin viability: higher = stronger sensitisation to camptothecin
Rule for the call: 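Active genes have an RSA gene-level p-value below 0.001, computed from the ratios of their separate siRNAs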

Target gene	reagent	log2 vehicle/camptothecin viability
GPR150 (G protein-coupled receptor 150)	1	-0.496
GPR150 (G protein-coupled receptor 150)	2	-0.353
GPR150 (G protein-coupled receptor 150)	3	-0.279
GPR150 (G protein-coupled receptor 150)	4	-0.54
KIF6 (kinesin family member 6)	1	-0.271
KIF6 (kinesin family member 6)	2	0.275
KIF6 (kinesin family member 6)	3	-0.506
KIF6 (kinesin family member 6)	4	-0.0151
ZNF101 (zinc finger protein 101)	1	-0.199
ZNF101 (zinc finger protein 101)	2	0.293
ZNF101 (zinc finger protein 101)	3	-0.305
AQP9 (aquaporin 9)	1	-0.14
AQP9 (aquaporin 9)	2	-0.0385
AQP9 (aquaporin 9)	3	-0.148
AQP9 (aquaporin 9)	4	0.479
CRYZ (crystallin zeta)	1	0.0121
CRYZ (crystallin zeta)	2	0.218
CRYZ (crystallin zeta)	3	-0.00812
VRK1 (VRK serine/threonine kinase 1)	1	-0.102
VRK1 (VRK serine/threonine kinase 1)	2	0.196
VRK1 (VRK serine/threonine kinase 1)	3	-0.367
VRK1 (VRK serine/threonine kinase 1)	4	-0.482
AXIN1 (axin 1)	1	0.287
AXIN1 (axin 1)	2	-0.329
AXIN1 (axin 1)	3	0.378
AXIN1 (axin 1)	4	-0.017
CPA3 (carboxypeptidase A3)	1	0.00648
CPA3 (carboxypeptidase A3)	2	-0.387
CPA3 (carboxypeptidase A3)	3	-0.104
CPA3 (carboxypeptidase A3)	4	-0.288
NEB (nebulin)	1	-0.111
NEB (nebulin)	2	-0.0899
NEB (nebulin)	3	-0.0498
NEB (nebulin)	4	-0.447
FBXO16 (F-box protein 16)	1	-0.391
FBXO16 (F-box protein 16)	2	0.22
FBXO16 (F-box protein 16)	3	-0.314
FBXO16 (F-box protein 16)	4	-0.408
STUB1 (STIP1 homology and U-box containing protein 1)	1	-0.128
STUB1 (STIP1 homology and U-box containing protein 1)	2	0.342
STUB1 (STIP1 homology and U-box containing protein 1)	3	-0.327
STUB1 (STIP1 homology and U-box containing protein 1)	4	0.181
FER (FER tyrosine kinase)	1	-0.196
FER (FER tyrosine kinase)	2	-0.144
FER (FER tyrosine kinase)	3	-0.274
FER (FER tyrosine kinase)	4	-0.209
PDIA6 (protein disulfide isomerase family A member 6)	1	0.114
PDIA6 (protein disulfide isomerase family A member 6)	2	0.012
PDIA6 (protein disulfide isomerase family A member 6)	3	0.303
PDIA6 (protein disulfide isomerase family A member 6)	4	0.0509
SLC13A3	1	0.96
SLC13A3	2	0.282
SLC13A3	3	-0.123
SLC13A3	4	-0.00534
PDC (phosducin)	1	-0.173
PDC (phosducin)	2	-0.0699
PDC (phosducin)	3	0.292
SCNN1A (sodium channel epithelial 1 subunit alpha)	1	0.511
SCNN1A (sodium channel epithelial 1 subunit alpha)	2	-0.282
SCNN1A (sodium channel epithelial 1 subunit alpha)	3	-0.0713

Not a retest: entries from further up.
Target gene	reagent	log2 vehicle/camptothecin viability
FER (FER tyrosine kinase)	1	-0.196
FER (FER tyrosine kinase)	2	-0.144
FER (FER tyrosine kinase)	3	-0.274
FER (FER tyrosine kinase)	4	-0.209
PDIA6 (protein disulfide isomerase family A member 6)	1	0.114
PDIA6 (protein disulfide isomerase family A member 6)	2	0.012
PDIA6 (protein disulfide isomerase family A member 6)	3	0.303
PDIA6 (protein disulfide isomerase family A member 6)	4	0.0509
SLC13A3	1	0.96
SLC13A3	2	0.282
SLC13A3	3	-0.123
SLC13A3	4	-0.00534
PDC (phosducin)	1	-0.173
PDC (phosducin)	2	-0.0699

The listing continues.
Target gene	reagent	log2 vehicle/camptothecin viability
TNXB (tenascin XB)	1	-0.0626
TNXB (tenascin XB)	2	-0.433
TNXB (tenascin XB)	3	0.192
TNXB (tenascin XB)	4	-0.169
MMP3 (matrix metallopeptidase 3)	1	0.113
MMP3 (matrix metallopeptidase 3)	2	-0.559
MMP3 (matrix metallopeptidase 3)	3	0.764
MMP3 (matrix metallopeptidase 3)	4	-0.27
GBA2 (glucosylceramidase beta 2)	1	-0.252
GBA2 (glucosylceramidase beta 2)	2	-0.394
GBA2 (glucosylceramidase beta 2)	3	-0.143
GBA2 (glucosylceramidase beta 2)	4	-0.318
SP110 (SP110 nuclear body protein)	1	0.025
SP110 (SP110 nuclear body protein)	2	-0.377
SP110 (SP110 nuclear body protein)	3	-0.295
CRLF2 (cytokine receptor like factor 2)	1	-0.345
CRLF2 (cytokine receptor like factor 2)	2	-0.033
CRLF2 (cytokine receptor like factor 2)	3	-0.343
CRLF2 (cytokine receptor like factor 2)	4	-0.104
EIF3C (eukaryotic translation initiation factor 3 subunit C)	1	-0.519
EIF3C (eukaryotic translation initiation factor 3 subunit C)	2	-0.0111
EIF3C (eukaryotic translation initiation factor 3 subunit C)	3	-0.577
MYBPC3 (myosin binding protein C3)	1	-0.308
MYBPC3 (myosin binding protein C3)	2	0.0201
MYBPC3 (myosin binding protein C3)	3	-0.0709
MYBPC3 (myosin binding protein C3)	4	0.0407
SLC6A19	1	-0.92
SLC6A19	2	-0.0485
SLC6A19	3	0.115
SLC6A19	4	-0.313
